{"source": "the supplement of paper PMC9015667", "note": "Where a name gives a salt, the structure may show the parent alone. The list shows a part of the results. Repeats are few or missing, and single values can be far off."}
{"test_system": "M238P (parental melanoma line)", "assay": "reduction in cell viability relative to untreated/vehicle; higher = more growth inhibition", "conditions": "200 nM; 72 h", "units": {"reduction in cell viability": "%"}}
{"compound": "CC(C)[C@H](C(=O)Nc1ccc(C(=O)NO)cc1)c1ccccc1", "reduction in cell viability": 37.9}
{"compound": "Cc1cn[nH]c1", "note": "[Fomepizole]", "reduction in cell viability": "< 0"}
{"compound": "CC(C)NCC(O)c1ccc(O)c(O)c1", "note": "(stereo not given) [Isoproterenol]", "reduction in cell viability": "< 0"}
{"compound": "Cc1ccc(NC(=O)C2(c3ccc4c(c3)OC(F)(F)O4)CC2)nc1-c1cccc(C(=O)O)c1", "note": "[Lumacaftor]", "reduction in cell viability": "< 0"}
{"compound": "CCOc1cc(N2CCC(O)CC2)ccc1Nc1ncc2c(n1)N(C)c1ccccc1C(=O)N2C", "reduction in cell viability": "< 0"}
{"compound": "Clc1ccc(CCC(Cn2ccnc2)Sc2c(Cl)cccc2Cl)cc1", "note": "(stereo not given) [Butoconazole nitrate]", "reduction in cell viability": "< 0"}
{"compound": "COc1ccc(C2CC(c3ccccc3)=NN2c2ccc(S(N)(=O)=O)cc2)cc1", "note": "(stereo not given)", "reduction in cell viability": "< 0"}
{"compound": "O=c1[nH]nc(OCCCc2ccc(Cl)cc2)c(NCc2cccnc2)c1Br", "note": "[Parogrelil]", "reduction in cell viability": "< 0"}
{"compound": "COc1cc(N2CCC(N3CCN(C)CC3)CC2)ccc1Nc1ncnc(Nc2ccccc2S(=O)(=O)C(C)C)n1", "reduction in cell viability": "< 0"}
{"compound": "C[C@H](NCc1ccc2c(c1)nc(NC(=O)c1ccc(-c3cn[nH]c3)s1)n2CCc1ccccc1)C(C)(C)C", "reduction in cell viability": 102}
{"compound": "Nc1nc(OCc2ccccc2)c2nc[nH]c2n1", "note": "[O6-Benzylguanine]", "reduction in cell viability": "< 0"}
{"compound": "CC1(C)OC2=C(C(=O)c3ccccc3C2=O)[C@H](NCc2ccccc2)[C@@H]1O", "reduction in cell viability": "< 0"}
{"compound": "CCC(=O)O[C@]1(C(=O)CO)CC[C@H]2[C@@H]3CCC4=CC(=O)CC[C@]4(C)[C@H]3CC[C@@]21C", "note": "[17 alpha-propionate]", "reduction in cell viability": "< 0"}
{"compound": "C=CC(=O)Nc1cccc(Oc2nc(Nc3ccc(N4CCN(C)CC4)cc3OC)ncc2Cl)c1", "reduction in cell viability": "< 0"}
{"compound": "Cc1[nH]c2ccccc2c1CCNCc1ccc(/C=C/C(=O)NO)cc1", "note": "[Panobinostat (LBH589)]", "reduction in cell viability": 89.9}
{"compound": "Cc1c(-c2cccc3c(CCCOc4cccc5ccccc45)c(C(=O)O)n(Cc4cccnc4)c23)c(COc2ccc(N3CCN([S+](=O)([O-])N(C)C)CC3)cc2)nn1C", "reduction in cell viability": "< 0"}
{"compound": "O=C(NCc1ccccc1)c1csc(Nc2ccncn2)n1", "note": "[Thiazovivin]", "reduction in cell viability": "< 0"}
{"compound": "CNc1nc(Nc2ccc(C(=O)N3CCOCC3)cc2OC)ncc1Cl", "reduction in cell viability": "< 0"}
{"compound": "O=C(CCCCCCC(=O)Nc1ccc([C@H]2O[C@@H](CSc3nc(-c4ccccc4)c(-c4ccccc4)o3)C[C@@H](c3ccc(CO)cc3)O2)cc1)NO", "note": "[Tubacin]", "reduction in cell viability": "< 0"}
{"compound": "CC1(C)CCC[C@]2(C)[C@H]3CC(=O)O[C@]3(C)CC[C@@H]12", "note": "[Sclareolide]", "reduction in cell viability": "< 0"}
{"compound": "N#Cc1c(O)c2c(-c3ccc(-c4ccccc4O)cc3)csc2[nH]c1=O", "reduction in cell viability": "< 0"}
{"compound": "O=c1[nH]c(=O)n([C@H]2C[C@H](O)[C@@H](CO)O2)cc1F", "note": "[Floxuridine]", "reduction in cell viability": 20.3}
{"compound": "CN(C)CCN(Cc1ccc(Cl)cc1)c1ccccn1", "note": "[Chloropyramine hydrochloride]", "reduction in cell viability": "< 0"}
{"compound": "N#Cc1c(C2CCNCC2)cc(-c2c(O)cccc2OCC2CC2)nc1N", "note": "[IKK-2 Inhibitor VIII]", "reduction in cell viability": "< 0"}
{"compound": "CN1CCN(c2ncc(-c3cc(Cl)cc(Cl)c3Cl)c(N)n2)CC1", "note": "[Sipatrigine]", "reduction in cell viability": "< 0"}
{"compound": "CC(=O)N1CCN(c2ccc(OCc3nn(C)c(C)c3-c3cccc4c(CCCOc5cc(C)c(Cl)c(C)c5)c(C(=O)O)n(Cc5cccnc5)c34)cc2)CC1", "reduction in cell viability": "< 0"}
{"compound": "CCC1=C[C@@H]2CN(C1)Cc1c([nH]c3ccccc13)[C@@](C(=O)OC)(c1cc3c(cc1OC)N(C)[C@H]1[C@@](O)(C(=O)OC)[C@H](OC(C)=O)[C@]4(CC)C=CCN5CC[C@]31[C@@H]54)C2", "note": "[Vinorelbine tartrate]", "reduction in cell viability": 72.1}
{"compound": "CC1(C)C(N(O)C(=O)Nc2ccc(Cl)cc2)N(c2ccc(Cl)cc2)C(=O)N1CC(=O)NN=CC=Cc1ccc([N+](=O)[O-])o1", "note": "(stereo not given) [Eeyarestatin I]", "reduction in cell viability": "< 0"}
{"compound": "COc1cc2ncnc(Nc3ccc(F)c(Cl)c3)c2cc1NC(=O)/C=C/CN1CCCCC1", "note": "[Dacomitinib]", "reduction in cell viability": 3.72}
{"compound": "CNC(=O)CN1CCC(Oc2cc3c(Nc4cccc(Cl)c4F)ncnc3cc2OC)CC1", "note": "[Sapitinib]", "reduction in cell viability": "< 0"}
{"compound": "COc1c(OCCCN2CCOCC2)ccc2c1N=C(NC(=O)c1cnc(N)nc1)N1CCN=C21", "reduction in cell viability": 8.93}
{"compound": "C=CC(=O)N1CCc2ccc(-n3c(=O)ccc4cnc5ccc(-c6cnn(C)c6)cc5c43)cc21", "reduction in cell viability": "< 0"}
{"compound": "CC[C@H](/C=C/[C@@H](C)[C@H]1CC[C@H]2[C@@H]3CC=C4C[C@@H](O)CC[C@]4(C)[C@H]3CC[C@]12C)C(C)C", "note": "[Stigmasterol]", "reduction in cell viability": "< 0"}
{"compound": "C=C1C[C@@]2(O)O[C@@]3(C[C@H]2C(C)C)[C@@H](C)CC[C@@H]13", "note": "[Curcumol]", "reduction in cell viability": "< 0"}
{"compound": "Cc1ccc(-c2ncn(-c3ccc(Nc4nccc(-c5cccc(N6CCOCC6)c5)n4)cc3)n2)cn1", "reduction in cell viability": "< 0"}
{"compound": "CN1CCC(=C2c3ccccc3CC(=O)c3sccc32)CC1", "note": "[Ketotifen]", "reduction in cell viability": "< 0"}
{"compound": "CCCCOc1ccc(C(=O)Nc2ccc(F)cc2F)cc1", "reduction in cell viability": "< 0"}
{"compound": "CCCCCCCCCCC[C@@H](C[C@@H]1OC(=O)[C@H]1CCCCCC)OC(=O)[C@H](CC(C)C)NC=O", "note": "[Orlistat]", "reduction in cell viability": "< 0"}
{"compound": "CC1=C[C@@H]2[C@H]([C@@H](O)C[C@@]3(C)[C@H]2C[C@@H](C)[C@]3(O)C(=O)CO)[C@@]2(C)Cc3cnn(-c4ccccc4)c3C=C12", "note": "[Deacetyl cortivazol]", "reduction in cell viability": "< 0"}
{"compound": "COC(=O)Nc1nc2cc(C(=O)c3ccc(F)cc3)ccc2[nH]1", "note": "[Flubendazole]", "reduction in cell viability": 21.6}
